# Assay results published in PMC8762078, “An ALS-associated variant of the autophagy receptor SQSTM1/p62 reprograms binding selectivity toward the autophagy-related hATG8 proteins” (The Journal of Biological Chemistry, 2021).
# Protein sequences, listed by entry. Tags and fused reporters are not part of them.
# UniProt P60520: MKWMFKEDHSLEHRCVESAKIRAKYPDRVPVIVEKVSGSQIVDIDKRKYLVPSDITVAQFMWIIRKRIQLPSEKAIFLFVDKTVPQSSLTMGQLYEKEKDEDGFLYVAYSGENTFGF
# These are yes or no findings as the source states them, for the method shown. Some binding calls cover weakened binding; strength is not graded here.
# Biological target: p62 L341V-AIM peptide (human)
# Experiment: native MS; ESI-MS competition binding under nondenaturing conditions: each hATG8 titrated into an equimolar mixture of WT-AIM and L341V-AIM peptides (each 10 μM); read-out is the ratio of peak intensities of unbound WT and L341V peptides; ratios given for 20 μM hATG8; two independent experiments; both …
substance,measurement,value
GABARAPL2 (from UniProt P60520 1-117),binding,binds
